Results published in PubChem BioAssay AID274 (DTP/NCI, 2004).
The list does not hold the whole screen: it gathers tests that were run many times, whatever their T/C, doses with no T/C, and many T/C values between a quarter and a half above the control. Further doses and runs are listed elsewhere. T/C is the treated group as % of the vehicle group. Some entries give survivors of the animals treated and no T/C: the source files T/C as zero there, which appears to mark a toxic dose or a test without result, not a measured value. Some doses without a T/C left all or most animals alive at the check, yet need not have been tolerated: survival well below the control is almost never listed, so the zero probably covers shortened survival too. Survivors were counted at the toxicity check, usually on the fifth day, unless a day is given; later deaths do not show. Schedule codes are those of the source, read here as Q, the interval in days (D) or hours (H), X, the number of doses. Some entries were tested several times; their values stand side by side, smallest first. Where survival is the endpoint, the PubChem record calls one and a half times the control and up active, and a quarter to a half above the control has no call in these data; cut-offs in other NCI protocols can differ. Some T/C values are followed by the survivors on the day toxicity was checked, most often the fifth; without a count, all were alive then. Numbered stars: 1 amine (or outer) side, 2 acyl side, 3 side chain; on linkers, the order of the positions; unused ones are H or OH. Square brackets hold non-standard residues; d marks the D form. Peptide text beside a SMILES is read from it. * marks the point of attachment. X2 = CCC(=O)CC1CC(C)CC(C(=O)[*:2])N1[*:1]; X1 = CCCCCCCCC(C)C(=O)*; Aib = CC(C)(N)C(=O)O; X3 = CC(CN(C)CCO)N*

Tested on: BDF1 mice, Lewis lung carcinoma iv, survival T/C
Assay: NCI In Vivo Anticancer Drug Screen. Data for tumor model Lewis Lung Carcinoma (intravenous) in B6D2F1 (BDF1) mice
Conditions: T/C endpoint: median survival time, higher T/C = longer survival
Experimental: The antitumor activity of compounds was measured in mice bearing transplantable tumors. Survival or tumor size were measured and the results are expressed as the measurement made in the treated group (T) divided by the measurement made in the vehicle treated control group (C). The tumor model used in this assay is Lewis Lung Carcinoma (intravenous) in B6D2F1 (BDF1) mice

[1] = dose: 16.0 mg/kg/injection, schedule: Q01DX009 (ip), vehicle: saline with Tween-80
[2] = dose: 200.0 mg/kg/injection, schedule: Q01DX009 (ip), vehicle: saline
[3] = dose: 400.0 mg/kg/injection, schedule: Q01DX009 (ip), vehicle: saline
[4] = dose: 50.0 mg/kg/injection, schedule: Q01DX009 (ip), vehicle: saline with Tween-80
[5] = dose: 100.0 mg/kg/injection, schedule: Q01DX009 (ip), vehicle: saline with Tween-80
[6] = dose: 200.0 mg/kg/injection, schedule: Q01DX009 (ip), vehicle: saline with Tween-80
[7] = dose: 400.0 mg/kg/injection, schedule: Q01DX009 (ip), vehicle: saline with Tween-80
[8] = dose: 100.0 mg/kg/injection, schedule: Q01DX009 (ip), vehicle: Klucel (hydroxypropylcellulose) (HPC)
[9] = dose: 6.25 mg/kg/injection, schedule: Q01DX009 (ip), vehicle: water
[10] = dose: 50.0 mg/kg/injection, schedule: Q01DX009 (ip), vehicle: saline
[11] = dose: 100.0 mg/kg/injection, schedule: Q01DX009 (ip), vehicle: saline
[12] = dose: 200.0 mg/kg/injection, schedule: Q01DX009 (ip), vehicle: Klucel (hydroxypropylcellulose) (HPC)
[13] = dose: 12.5 mg/kg/injection, schedule: Q01DX009 (ip), vehicle: saline with Tween-80
[14] = dose: 25.0 mg/kg/injection, schedule: Q01DX009 (ip), vehicle: saline with Tween-80
[15] = dose: 400.0 mg/kg/injection, schedule: Q01DX009 (ip), vehicle: Klucel (hydroxypropylcellulose) (HPC)

SMILES: C=C1C(=O)OCC1(C(=O)OCC)C(=O)OCC
- T/C [1]: 125 % of control
- survivor count (dose: 32.0 mg/kg/injection, schedule: Q01DX009 (ip), vehicle: saline with Tween-80): 1 of 10
- survivor count (dose: 64.0 mg/kg/injection, schedule: Q01DX009 (ip), vehicle: saline with Tween-80): 0 of 10

SMILES: CCN(CC)CCOC(=O)Cc1cccc2c(=O)cc(-c3ccccc3)oc12
- survivor count [2]: 7 of 10
- survivor count [3]: 0 of 10

SMILES: C=C(C)/C([O-])=N/[N+](C)(C)CC(O)CCCCCCCCCCCC (stereo unspecified)
- survivor count (dose: 25.0 mg/kg/injection, schedule: Q01DX001 (ip), vehicle: saline): 10 of 10

SMILES: CC(=O)Nc1ccc(Nc2ccc(C(=C3C=CC(=[N+](C)CCC#N)C=C3)c3ccc(N(C)CCC#N)cc3)cc2)cc1
- survivor count [4]: 10 of 10
- survivor count [5]: 4 of 10
- survivor count [6]: 0 of 10
- survivor count [7]: 0 of 10

SMILES: CC(=O)OCC1OC(n2cc(CBr)nn2)C(OC(C)=O)C(OC(C)=O)C1OC(C)=O (stereo unspecified)
- survivor count [8]: 6 of 9

SMILES: O=NN(CCCl)C(=O)NC1CCC(=O)NC1=O (stereo unspecified)
- survivor count [1]: 9 of 10

SMILES: Nc1nc2c(ncn2C2OC(CO)C(O)C2O)c(=O)[nH]1.Nc1nc2c(ncn2C2OC(CO)C(O)C2O)c(=O)[nH]1.[NH2-].[NH2-].[Pt+2] (stereo unspecified)
- survivor count [9]: 10 of 10

SMILES: c1ccc2c3c(ccc2c1)Sc1ccc2ccccc2c1N3
- T/C [6]: 129 % of control [9 of 10 alive]

SMILES: CNc1nc(N(C)C)nc(N(C)C)n1
- survivor count (dose: 3.12 mg/kg/injection, schedule: Q01DX009 (ip), vehicle: saline): 10 of 10
- survivor count (dose: 6.25 mg/kg/injection, schedule: Q01DX009 (ip), vehicle: saline): 10 of 10
- survivor count [10]: 10 of 10
- survivor count [11]: 2 of 10

SMILES: CC1(C)COCN1COCCOCN1COCC1(C)C
- survivor count [2]: 1 of 10

SMILES: CCN(C)N=Nc1ccc(C(N)=O)cc1
- survivor count [12]: 9 of 10

SMILES: CC(=O)N(C)c1ccc(Nc2cc(C)[nH]c3ccc4ncnc4c23)cc1
- survivor count [11]: 10 of 10
- survivor count [2]: 0 of 10

SMILES: Nc1nc(N)c2c(Cl)c(CNc3ccc(Cl)c(Cl)c3)ccc2n1
- survivor count [5]: 10 of 10

SMILES: CCCCCCCCCCCCN1C(C)=CS/C1=C\C=C\c1scc(C)[n+]1CCCCCCCCCCCC
- survivor count (dose: 6.25 mg/kg/injection, schedule: Q01DX009 (ip), vehicle: saline with Tween-80): 10 of 10
- survivor count [13]: 10 of 10
- survivor count [14]: 2 of 10

SMILES: [Cl][Sn]([c]1ccccc1)[c]1ccccc1
- survivor count (dose: 25.0 mg/kg/injection, schedule: Q01DX009 (ip), vehicle: saline): 10 of 10
- survivor count [10]: 1 of 10
- survivor count [11]: 0 of 10

SMILES: Nc1nc(SCc2ccccc2)c2ncn(C3OC(CO)CC3O)c2n1 (stereo unspecified)
- survivor count [8]: 10 of 10
- survivor count [12]: 10 of 10
- survivor count [15]: 8 of 10

SMILES: O=C1C2(Cl)C3(Cl)C4(Cl)C(Cl)(Cl)C5(Cl)[C@]3(Cl)C1(Cl)[C@]5(Cl)C24Cl (stereo partly specified)
- survivor count [14]: 4 of 10

SMILES: N#CC(=C1SCS1)[N+](=O)[O-]
- survivor count (dose: 12.0 mg/kg/injection, schedule: Q01DX009 (ip), vehicle: saline with Tween-80): 9 of 10

SMILES: CNC(=O)c1cccc2c(Nc3ccc(NS(C)(=O)=O)cc3OC)c3cccc(C)c3nc12
- T/C (dose: 0.78 mg/kg/injection, schedule: Q01DX009 (ip), vehicle: water): 131 % of control
- survivor count [9]: 10 of 10

SMILES: CC1(c2ccc(Cl)cc2)OC(=O)C(=Cc2ccc([N+](=O)[O-])s2)C(=O)O1 (stereo unspecified)
- survivor count [6]: 6 of 10

SMILES: CC(C)(C)N1CC1CNC(=O)C(=O)NCC1CN1C(C)(C)C (stereo unspecified)
- survivor count [14]: 10 of 10

SMILES: Nc1ccccc1N
- survivor count [12]: 9 of 10
- survivor count [15]: 0 of 10

SMILES: O=C(O)CP(=O)(O)O
- T/C [3]: 125 % of control
- T/C (dose: 800.0 mg/kg/injection, schedule: Q01DX009 (ip), vehicle: saline): 131 % of control

SMILES: CCCCOCN(COCCCC)C(C)Cc1ccccc1 (stereo unspecified)
- survivor count [7]: 7 of 10

SMILES: CC12C(=O)C=CCC1=CCC1C2CCC2(O)C(=O)OC3(C)C4CC5(C)C(COC16OC23C5C6=O)C(=O)O4 (stereo unspecified)
- survivor count [12]: 10 of 10
- survivor count [15]: 2 of 10

SMILES: CC(=O)N(C)O
- survivor count [7]: 10 of 10

SMILES: CC[As](=O)(O)CC
- survivor count [10]: 10 of 10

SMILES: COc1ccc2[nH]c3c(c2c1)CCNC3CC(C)CCC=C(C)C (stereo unspecified)
- survivor count [12]: 3 of 10

SMILES: Nc1ccc(OC(=O)Oc2ccc(N)cc2)cc1
- survivor count [3]: 9 of 10

SMILES: [N-]=[N+]=C1N=CN=C1c1ncn[nH]1
- survivor count [8]: 3 of 10

SMILES: O=c1c(O)c(-c2cc(O)c(O)c(O)c2)oc2cc(O)cc(O)c12
- survivor count (dose: 400.0 mg/kg/injection, schedule: Q01DX009 (ip), vehicle: other): 9 of 10

SMILES: COc1ccc2c(c1)/C(=C/CCN(C)C)c1ccccc1S2
- survivor count [10]: 9 of 10

SMILES: C[CH2][Ge]([CH2]C)[CH2]C.C[CH2][Ge]([CH2]C)[CH2]C.C[CH2][Ge]([CH2]C)[O][Ge]([CH2]C)[CH2]C
- survivor count [5]: 10 of 10
- survivor count [6]: 2 of 10

SMILES: CCCCCC(O)C1C(=O)OC(C)C(O)/C=C/C=C/C=C/C=C\C=C(\C)C(O)CC(O)CC(O)CC(O)CC(O)CC(O)CC1O (stereo unspecified)
- survivor count (dose: 50.0 mg/kg/injection, schedule: Q01DX009 (ip), vehicle: distilled water + alcohol): 3 of 10

SMILES: CCC1CN2C(=N1)c1ccccc1-c1cc(Cl)ccc12 (stereo unspecified)
- T/C [13]: 132 % of control
- survivor count [5]: 1 of 10

SMILES: CCCCCCCCC(C)C(=O)N1CCCC1C(=O)N1C(CC(=O)CC)CC(C)CC1C(=O)NC(C)C(=O)NC(C)(C)C(=O)NC(C)(C)C(=O)NC(C(=O)NC(C)C(=O)NC(C)(C)C(=O)NC(C)(C)C(=O)NC(C)CN(C)CCO)C(C)CC (stereo unspecified) (X1-P[X2]A[Aib][Aib]IA[Aib][Aib]-X3; configuration not given here)
- survivor count (dose: 10.0 mg/kg/injection, schedule: Q01DX009 (ip), vehicle: Klucel (hydroxypropylcellulose) (HPC)): 0 of 10

SMILES: COC1/C=C/C=C(/C)Cc2cc(O)c(Cl)c(c2)N(C)C(=O)CC(OC(=O)C(C)C)C2(C)OC2C(C)C2CC1(O)NC(=O)O2 (stereo unspecified)
- survivor count (dose: 2.0 mg/kg/injection, schedule: Q01DX009 (ip), vehicle: saline + alcohol): 5 of 10
- survivor count (dose: 4.0 mg/kg/injection, schedule: Q01DX009 (ip), vehicle: saline + alcohol): 1 of 10

SMILES: CC(C)NCC(O)COc1cccc2ccccc12 (stereo unspecified)
- T/C (dose: 4.0 mg/kg/injection, schedule: Q01DX009 (ip), vehicle: Klucel (hydroxypropylcellulose) (HPC)): 127 % of control
- survivor count (dose: 128.0 mg/kg/injection, schedule: Q01DX009 (ip), vehicle: Klucel (hydroxypropylcellulose) (HPC)): 2 of 10

SMILES: O=C1CC2(C(=O)N1CN1CCOCC1)c1ccccc1-c1ccccc12
- survivor count (dose: 800.0 mg/kg/injection, schedule: Q01DX009 (ip), vehicle: Klucel (hydroxypropylcellulose) (HPC)): 1 of 10

SMILES: CCCCC(=O)OCC(=O)[C@]1(O)Cc2c(O)c3c(c(O)c2[C@@H](OC2CC(NC(=O)C(F)(F)F)C(O)C(C)O2)C1)C(=O)c1c(OC)cccc1C3=O (stereo partly specified)
- T/C (dose: 32.0 mg/kg/injection, schedule: Q01DX009 (ip), vehicle: distilled water + Tween-80): 134 % of control
- survivor count (dose: 64.0 mg/kg/injection, schedule: Q01DX009 (ip), vehicle: distilled water + Tween-80): 10 of 10
- survivor count (dose: 128.0 mg/kg/injection, schedule: Q01DX009 (ip), vehicle: distilled water + Tween-80): 8 of 10

SMILES: C/C=C(\C)c1cc(=O)c2c(C)cc3c(c2o1)C(=O)c1c(O)c(C2CC(C)(N(C)C)C(O)C(C)O2)cc(C2CC(N(C)C)C(O)C(C)O2)c1C3=O (stereo unspecified)
- survivor count (dose: 500.0 micrograms/kg/injection, schedule: Q01DX009 (ip), vehicle: saline): 10 of 10
- survivor count (dose: 1000.0 micrograms/kg/injection, schedule: Q01DX009 (ip), vehicle: saline): 10 of 10

SMILES: COc1cc(C(C)(C)C)cc(OC)c1C(O)(c1c(OC)cc(C(C)(C)C)cc1OC)c1c(OC)cc(C(C)(C)C)cc1OC
- survivor count [4]: 8 of 10
- survivor count [5]: 3 of 10 and 10 of 10
- survivor count [6]: 2 of 10 and 8 of 10
